Source: PubChem BioAssay AID1224830 (NIAID, 2016)
Screen: 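Regulators of TLR4 signalling towards TNF-alpha in macrophage-like cells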 (primary screen). Cell system: human THP-1 monocytic leukaemia cells, TNF dual-luciferase reporter clone, PMA-differentiated to macrophage-like cells. Knock-down reagent: siRNA pool against human genes, 50 nM. Timing: LPS for 4 h, given about 3 days after siRNA transfection. Conditions: bacterial LPS (TLR4 ligand), 10 ng/ml. Detection: 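Ratio of firefly to renilla light, scaled to the plate median and expressed as a robust z-score per replicate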. Direction: TNF reporter robust z-score: higher = stronger TNF reporter response to LPS. Rule for the call: 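a well is active when its z-score exceeds 2.8 or falls below -1.5; control wells carry no call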.
Here is a random part of about 18,000 reagents tested. In the full data, about 2,900 (16%) were called active. 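Calls are made per well; low scores hint the gene aids the LPS response, high scores that it dampens it.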 Unmarked entries are inactive. Repeated entries: four replicate wells of each siRNA pool.

no.	target gene	TNF reporter robust z-score
1	KCTD4	2.49
2	KCTD4	4.64 (active)
3	KCTD4	-0.41
4	KCTD4	2.24
5	RALGPS1	0.2
6	RALGPS1	-0.05
7	RALGPS1	-0.14
8	RALGPS1	0.03
9	SNAPC5	0.18
10	SNAPC5	-0.06
11	SNAPC5	0
12	SLITRK1	0.8
13	SLITRK1	1.6
14	SLITRK1	1.1
15	SLITRK1	3.15 (active)
16	PPIL3	-1.09
17	PPIL3	-1.36
18	PPIL3	-1.16
19	PPIL3	-1.12
20	E2F6	0.18
21	E2F6	0.28
22	E2F6	-0.18
23	E2F6	0.31
24	SEMA3D	-1.31
25	SEMA3D	-0.46
26	SEMA3D	-0.12
27	SEMA3D	0
28	DZIP3	-0.15
29	DZIP3	-0.93
30	DZIP3	2.8 (active)
31	DZIP3	0.75
32	ACCS	0.74
33	ACCS	1.15
34	ACCS	0
35	ACCS	0.61
36	KCNA7	0.88
37	KCNA7	2.81 (active)
38	KCNA7	1.33
39	KCNA7	0.59
40	MCM10	-2.2 (active)
41	MCM10	-2.03 (active)
42	MCM10	-0.39
43	MCM10	-0.27
44	TNFRSF10B	4.47 (active)
45	TNFRSF10B	4.77 (active)
46	TNFRSF10B	1.97
47	TNFRSF10B	1.39
48	HSD3B1	4.21 (active)
49	HSD3B1	0.42
50	HSD3B1	0.46
51	HSD3B1	1.14
52	UNC5A	-1.55 (active)
53	UNC5A	-1.23
54	UNC5A	-1.88 (active)
55	UNC5A	-1.65 (active)
56	GALNT10	1.44
57	GALNT10	-1.1
58	GALNT10	0.75
59	GALNT10	0.23
60	ALG11	-0.96
61	ALG11	-0.18
62	ALG11	-0.83
63	ALG11	-0.34
64	GID4	-1.06
65	GID4	-0.85
66	GID4	-1.66 (active)
67	GID4	-0.58
68	EXOSC8	0.09
69	EXOSC8	-0.45
70	EXOSC8	-0.39
71	EXOSC8	-0.76
72	PALD1	-1.08
73	PALD1	-0.61
74	PALD1	-0.91
75	PALD1	-0.65
76	PELO	-1.19
77	PELO	-0.7
78	PELO	-0.8
79	PELO	0.42
80	IQCF1	-1.65 (active)
81	IQCF1	-1.12
82	IQCF1	-1.47
83	IQCF1	-1.28
84	PAXIP1	-0.12
85	PAXIP1	0.04
86	PAXIP1	-0.76
87	PAXIP1	-1.11
88	MAPK12	-0.34
89	MAPK12	0.61
90	MAPK12	-0.41
91	MAPK12	-0.58
92	RSPH4A	-1.21
93	RSPH4A	-0.1
94	RSPH4A	0.05
95	RSPH4A	-0.3
96	TRIM13	0.3
97	TRIM13	-0.68
98	TRIM13	-0.13
99	TRIM13	0.2
100	CAND2	-0.73
101	CAND2	1.13
102	CAND2	1.2
103	CAND2	1.31
104	ZNF19	-1.51 (active)
105	ZNF19	-1.45
106	ZNF19	-1.23
107	ZNF19	-1.49
108	CRABP1	-1.46
109	CRABP1	-0.78
110	CRABP1	-1.37
111	CRABP1	-1.1
112	WBP2	0.21
113	WBP2	0.28
114	WBP2	0.29
115	WBP2	0.85
116	STAC2	-0.6
117	STAC2	0.01
118	STAC2	-0.82
119	STAC2	-0.18
120	PPP5C	0.5
121	PPP5C	0.31
122	PPP5C	-0.51
123	PPP5C	-0.16
124	PSMB8	-0.28
125	PSMB8	0.17
126	PSMB8	-1.72 (active)
127	PSMB8	-0.66
128	HNRNPK	-0.9
129	HNRNPK	-0.26
130	HNRNPK	-0.77
131	HNRNPK	-0.41
132	EHD4	1.2
133	EHD4	-0.37
134	EHD4	0.84
135	EHD4	1.94
136	CRHBP	0.15
137	CRHBP	0.05
138	CRHBP	0.67
139	CRHBP	0.58
140	EPS8L3	2.39
141	EPS8L3	2.53
142	EPS8L3	-0.76
143	EPS8L3	-0.48
